Test results taken from patent US20230310372A1 (Amarin Pharmaceuticals Ireland Limited, priority 2013, published 2023).
Entries after “also recorded” stand apart in the source; their conditions may differ.

Experiment: Phase 1, open-label, crossover drug-drug interaction study: steady-state plasma pharmacokinetics of atorvastatin and its two active metabolites with or without ethyl eicosapentaenoate
Conditions: for AUC(0-t) / Cmax: human, plasma
Description: Data for Cmax and AUC0-24 are reported as means (SD); data for Tmax are reported as median values.

AUC(0-t) (oral, 80 mg, AUC0-24, LSGM (least squares geometric mean), A = atorvastatin (80 mg) administered alone): 170 ng·h/mL | AUC(0-t) (oral, 80 mg, AUC0-24, mean, 80 mg atorvastatin alone): 180 ng·h/mL | Cmax (oral, 80 mg, Cmax, LSGM (least squares geometric mean), A = atorvastatin (80 mg) administered alone): 49.4 ng/mL | Cmax (oral, 80 mg, Cmax, mean, 80 mg atorvastatin alone): 52.7 ng/mL | AUC(0-t) (oral, AUC0-24, LSGM (least squares geometric mean), A + EPA = atorvastatin (80 mg) co-administered with ethyl eicosapentaenoate (4 g)): 169 ng·h/mL | AUC(0-t) (oral, AUC0-24, mean, 80 mg atorvastatin co-administered with 4 g ethyl eicosapentaenoate): 184 ng·h/mL | Cmax (oral, Cmax, LSGM (least squares geometric mean), A + EPA = atorvastatin (80 mg) co-administered with ethyl eicosapentaenoate (4 g)): 53.2 ng/mL | Cmax (oral, Cmax, mean, 80 mg atorvastatin co-administered with 4 g ethyl eicosapentaenoate): 57.1 ng/mL | AUC(0-t) (po, 80 mg per day, AUC0-24 (geometric mean), healthy subjects, steady state, oral atorvastatin 80 mg per day alone (Day 7)): 170 ng·h/mL | Cmax (po, 80 mg per day, Cmax (geometric mean), healthy subjects, steady state, oral atorvastatin 80 mg per day alone (Day 7)): 49.4 ng/mL | AUC(0-t) (po, AUC0-24 (geometric mean), healthy subjects, steady state, oral atorvastatin 80 mg per day with about 4 g ethyl eicosapentaenoate (Day 35)): 169 ng·h/mL | Cmax (po, Cmax (geometric mean), healthy subjects, steady state, oral atorvastatin 80 mg per day with about 4 g ethyl eicosapentaenoate (Day 35)): 53.2 ng/mL
Compound: CC(C)c1c(C(=O)Nc2ccccc2)c(-c2ccccc2)c(-c2ccc(F)cc2)n1CC[C@@H](O)C[C@@H](O)CC(=O)O [Atorvastatin, atorvastatin, reference compound]
Effect of co-administration of ethyl eicosapentaenoate on Tmax (atorvastatin 80 mg alone versus with 4 g ethyl eicosapentaenoate): no significant difference; also recorded: did not significantly affect
